Test results as given in doi:10.1101/791277.
Where two headings read alike, the source gives them in different places. No constants are given. Whether binding was seen depends on the method and setting. For some assays here: Binding seen in cells or lysates may run through a third protein. Some binding calls cover weakened binding; strength is not graded here. For some assays here: Where a sequence is shown, tags or fusion partners need not be part of it. Values belong to the substance of their own block, whether it stands above or below them.

Amino acid sequences for entries named in this document (tags omitted). A change or cut given only in a name is not applied to a line headed by its entry. Residues count along the entry.
UniProt P27986, whole entry: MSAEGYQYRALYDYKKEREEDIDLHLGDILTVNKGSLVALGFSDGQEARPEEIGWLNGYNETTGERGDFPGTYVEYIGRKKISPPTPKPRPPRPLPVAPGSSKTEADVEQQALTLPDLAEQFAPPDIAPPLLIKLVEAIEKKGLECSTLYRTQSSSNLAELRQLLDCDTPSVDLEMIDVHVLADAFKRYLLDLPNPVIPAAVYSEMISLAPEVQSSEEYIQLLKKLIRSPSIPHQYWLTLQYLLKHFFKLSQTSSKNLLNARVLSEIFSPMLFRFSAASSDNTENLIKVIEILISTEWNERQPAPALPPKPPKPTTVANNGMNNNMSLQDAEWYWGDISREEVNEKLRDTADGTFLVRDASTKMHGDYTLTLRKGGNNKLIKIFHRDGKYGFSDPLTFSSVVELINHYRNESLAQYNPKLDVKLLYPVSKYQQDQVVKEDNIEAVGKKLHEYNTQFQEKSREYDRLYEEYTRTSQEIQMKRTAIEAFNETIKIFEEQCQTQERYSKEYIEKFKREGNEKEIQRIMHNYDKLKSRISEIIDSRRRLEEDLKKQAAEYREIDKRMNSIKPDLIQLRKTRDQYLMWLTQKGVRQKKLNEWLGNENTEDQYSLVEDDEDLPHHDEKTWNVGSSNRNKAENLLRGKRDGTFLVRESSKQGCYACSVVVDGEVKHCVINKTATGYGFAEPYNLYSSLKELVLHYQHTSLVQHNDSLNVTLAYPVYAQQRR
UniProt P27986, 479-724: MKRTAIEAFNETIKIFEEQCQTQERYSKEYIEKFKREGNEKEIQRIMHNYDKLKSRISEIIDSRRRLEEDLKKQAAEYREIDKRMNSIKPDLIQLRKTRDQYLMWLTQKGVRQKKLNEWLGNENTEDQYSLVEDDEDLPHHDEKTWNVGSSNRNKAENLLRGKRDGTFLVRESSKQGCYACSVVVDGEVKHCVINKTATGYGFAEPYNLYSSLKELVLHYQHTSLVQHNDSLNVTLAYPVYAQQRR
UniProt P27986, 614-720: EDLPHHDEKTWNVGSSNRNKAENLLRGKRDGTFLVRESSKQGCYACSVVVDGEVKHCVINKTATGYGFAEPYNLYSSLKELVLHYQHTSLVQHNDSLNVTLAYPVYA
UniProt O08908, whole entry: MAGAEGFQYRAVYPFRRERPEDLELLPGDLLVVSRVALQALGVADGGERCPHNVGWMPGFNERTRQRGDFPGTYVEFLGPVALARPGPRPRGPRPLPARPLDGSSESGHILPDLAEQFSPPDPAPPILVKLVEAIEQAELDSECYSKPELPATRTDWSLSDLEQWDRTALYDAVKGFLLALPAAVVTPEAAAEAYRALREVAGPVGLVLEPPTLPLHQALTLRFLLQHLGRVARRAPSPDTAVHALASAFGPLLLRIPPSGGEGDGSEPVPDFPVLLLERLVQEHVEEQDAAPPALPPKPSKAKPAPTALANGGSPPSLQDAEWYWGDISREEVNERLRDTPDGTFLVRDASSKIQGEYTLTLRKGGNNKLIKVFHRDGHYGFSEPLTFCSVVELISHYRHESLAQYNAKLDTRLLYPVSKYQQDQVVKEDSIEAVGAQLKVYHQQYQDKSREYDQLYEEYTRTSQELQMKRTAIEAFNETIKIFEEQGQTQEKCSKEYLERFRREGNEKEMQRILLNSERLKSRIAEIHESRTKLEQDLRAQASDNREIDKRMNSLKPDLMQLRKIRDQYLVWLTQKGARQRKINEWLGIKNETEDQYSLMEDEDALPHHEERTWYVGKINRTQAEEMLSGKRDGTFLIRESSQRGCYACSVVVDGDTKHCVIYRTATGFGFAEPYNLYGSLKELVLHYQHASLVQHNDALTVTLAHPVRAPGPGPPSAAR
UniProt O08908, 603-712: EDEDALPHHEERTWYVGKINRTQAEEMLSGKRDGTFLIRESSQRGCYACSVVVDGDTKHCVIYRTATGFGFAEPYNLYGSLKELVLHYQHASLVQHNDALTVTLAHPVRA
UniProt O00459, 342-728: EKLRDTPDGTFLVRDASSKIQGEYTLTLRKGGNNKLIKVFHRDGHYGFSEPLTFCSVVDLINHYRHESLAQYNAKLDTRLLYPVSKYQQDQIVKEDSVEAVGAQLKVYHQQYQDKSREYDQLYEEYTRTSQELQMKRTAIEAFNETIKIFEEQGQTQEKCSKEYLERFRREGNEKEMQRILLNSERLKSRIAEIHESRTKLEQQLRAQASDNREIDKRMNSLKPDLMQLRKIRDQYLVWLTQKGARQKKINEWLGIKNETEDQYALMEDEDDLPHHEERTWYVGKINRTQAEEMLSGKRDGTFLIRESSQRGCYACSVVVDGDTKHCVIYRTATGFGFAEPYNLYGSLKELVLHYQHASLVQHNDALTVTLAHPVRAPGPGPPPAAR

Key:
[1] = target: FLAG-p85α (full-length human PI3-Kinase regulatory subunit p85α) (human) (UniProt P27986); assay: co-IP
[2] = target: FLAG-p50α (full-length human PI3-Kinase regulatory subunit p50α) (human) (UniProt P27986); assay: co-IP
[3] = target: FLAG-p55α (full-length human PI3-Kinase regulatory subunit p55α) (human) (UniProt P27986); assay: co-IP
[4] = target: FLAG-p55γ (full-length human PI3-Kinase regulatory subunit p55γ) (human) (UniProt Q92569); assay: co-IP
[5] = target: FLAG-p85α (full-length human PI3-Kinase regulatory subunit p85α) (human) (UniProt P27986); assay: co-IP; remark: listed apart in the source
[6] = target: FLAG-p85β (full-length mouse PI3-Kinase regulatory subunit p85β) (mouse) (UniProt O08908); assay: co-IP
[7] = target: FLAG-p85α (full-length human PI3-Kinase regulatory subunit p85α) (human) (UniProt P27986); assay: co-IP; remark: listed apart in the source
[8] = target: FLAG-p50α (full-length human PI3-Kinase regulatory subunit p50α) (human) (UniProt P27986); assay: co-IP; remark: listed apart in the source
[9] = target: FLAG-p50α Y307D (phosphomimic) (human) (UniProt P27986); assay: co-IP
[10] = target: FLAG-p50α (full-length human PI3-Kinase regulatory subunit p50α) (human) (UniProt P27986); assay: co-IP; remark: listed apart in the source
[11] = target: FLAG-p85α (full-length human PI3-Kinase regulatory subunit p85α) (human) (UniProt P27986); assay: co-IP; remark: listed apart in the source
[12] = target: T1, ACK (1-489), Gal4 DNA-binding domain fusion (yeast two-hybrid bait) (UniProt Q07912); assay: two-hybrid
T1 sequence: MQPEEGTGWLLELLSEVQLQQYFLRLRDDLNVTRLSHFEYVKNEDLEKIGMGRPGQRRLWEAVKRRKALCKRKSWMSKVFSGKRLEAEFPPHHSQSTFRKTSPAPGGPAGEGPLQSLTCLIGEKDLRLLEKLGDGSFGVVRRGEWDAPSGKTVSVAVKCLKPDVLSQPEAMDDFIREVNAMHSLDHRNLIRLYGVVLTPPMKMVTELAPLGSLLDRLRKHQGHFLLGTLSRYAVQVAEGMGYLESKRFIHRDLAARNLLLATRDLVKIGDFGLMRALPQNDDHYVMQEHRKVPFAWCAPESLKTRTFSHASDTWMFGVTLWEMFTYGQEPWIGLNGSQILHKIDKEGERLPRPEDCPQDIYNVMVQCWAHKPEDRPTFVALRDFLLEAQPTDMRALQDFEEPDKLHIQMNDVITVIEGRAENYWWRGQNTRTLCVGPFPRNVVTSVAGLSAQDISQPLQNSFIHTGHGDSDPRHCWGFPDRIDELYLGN

[13] = target: T2, p85α pY607 peptide, [5-FAM]-TEDQ-[pY]-SLVEDE (human); assay: fluorescence polarisation
T2 sequence (peptide, 5-FAM on the N-terminus; phosphotyrosine at the fifth residue (Tyr607)): TEDQYSLVEDE

binding [1]: binds | binding [2]: binds | binding [3]: binds | binding [4]: binds | binding [5]: binds | binding [6]: binds
Substance: HA-ACK (full-length activated Cdc42-associated kinase) (from UniProt Q07912 1-1038)

binding [7]: binds | binding [8]: binds | binding [9]: binds | binding [1]: binds | binding [10]: binds | binding [11]: binds
Substance: V5-p85β (from UniProt O08908 1-722)

binding [12]: binds
Substance: p55γ (120-461), Gal4 activation domain fusion (yeast two-hybrid prey) (from UniProt Q92569 120-461) (domain or fragment)

binding [12]: binds
Substance: p85α (479-724), Gal4 activation domain fusion (yeast two-hybrid prey) (from UniProt P27986 479-724) (domain or fragment)

binding [13]: no binding
Substance: p85α cSH2 (614-720) (from UniProt P27986 614-720) (domain or fragment)

binding [12]: binds
Substance: p85β (342-728), Gal4 activation domain fusion (yeast two-hybrid prey) (from UniProt O00459 342-728) (domain or fragment)

binding [13]: no binding
Substance: p85β cSH2 (603-712) (from UniProt O08908 603-712) (domain or fragment)
